The target in the assay is Recombinant Human IL-13 (human, UniProt P35225 35-146, limits assumed). The experiment in a line: SPR (Biacore). The method, then: The BIACORE assay (Biacore, Inc, Piscataway, N.J.) determined the affinity of antibodies or DVD-Ig with kinetic measurements of on-rate and off-rate constants. Binding of antibodies or DVD-Ig proteins to a target antigen (for example, a purified recombinant target antigen) was determined by surface plasmon resonance-based measurements with a Biacore®1000 or 3000 instrument (Biacore® AB, Uppsala, Sweden) using running HBS-EP (10 mM HEPES [pH 7.4], 150 mM NaCl, 3 mM EDTA, and 0.005% surfactant P20) at 25° C. All chemicals were obtained from Biacore® AB (Uppsala, Sweden) or otherwise from a different source as described in the text. For example, approximately 5000 RU of goat anti-mouse IgG, (Fcγ), fragment specific polyclonal antibody (Pierce Biotechnology Inc, Rockford, Ill.) diluted in 10 mM sodium acetate (pH 4.5) was directly immobilized across a CM5 research grade biosensor chip using a standard amine coupling kit according to manufacturer's instructions and procedures at 25 μg/ml. Unreacted moieties on the biosensor surface were blocked with ethanolamine. Modified carboxymethyl dextran surface in flowcell 2 and 4 was used as a reaction surface. Unmodified carboxymethyl dextran without goat anti-mouse IgG in flow cell 1 and 3 was used as the reference surface. For kinetic analysis, rate equations derived from the 1:1 Langmuir binding model were fitted simultaneously to association and dissociation phases of all eight injections (using global fit analysis) with the use of Biaevaluation 4.0.1 software. Purified antibodies or DVD-Ig proteins were diluted in HEPES-buffered saline for capture across goat anti-mouse IgG specific reaction surfaces. Antibodies or DVD-Ig proteins to be captured as a ligand (25 μg/ml) were injected over reaction matrices at a flow rate of 5 μl/minute. The association and dissociation rate constants, kₒₙ (M⁻¹s⁻¹) and koff (s⁻¹) were determined under a continuous flow rate of 25 μl/minute. Rate constants were derived by making kinetic binding measurements at different antigen concentrations ranging from 10-200 nM. The equilibrium dissociation constant (M) of the reaction between antibodies or DVD-Ig proteins and the target antigen was then calculated from the kinetic rate constants by the following formula: KD=koff/kₒₙ. Binding was recorded as a function of time and kinetic rate constants were calculated.

Sequences of proteins named here, by UniProt entry; tags and fusion partners are left off. Residues count along the entry.
UniProt P35225, residues 35-146: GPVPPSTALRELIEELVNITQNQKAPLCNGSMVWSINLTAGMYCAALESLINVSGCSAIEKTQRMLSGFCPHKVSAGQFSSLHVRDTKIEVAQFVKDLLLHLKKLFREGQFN

No constants are given. Whether binding was seen depends on the method and setting. Some results given as binding are weak or reduced against the parent protein; the word gives no strength.

B1: DVD2191 (bispecific antibody)
VH: EVQLVQSGAEVKKPGSSVKVSCKASGGSFGGYGIGWVRQAPGQGLEWMGGITPFFGFADYAQKFQGRVTITADESTTTAYMELSGLTSDDTAVYYCARDPNEFWNGYYSTHDFDSWGQGTTVTVSSASTKGPEVQLVQSGAEVKKPGASVKVSCKASGYTFTSYWMHWVRQAPGQGLEWIGNINPKGGSNIYNEKFQGRVTMTRDTSISTAYMELSRLRSDDTAVYYCARLDYFGDSFDLWGQGTTVTVSS
VL: EIVLTQSPDFQSVTPKEKVTITCRASQDIGSELHWYQQKPDQPPKLLIKYASHSTSGVPSRFSGSGSGTDFTLTINGLEAEDAGTYYCHQTDSLPYTFGPGTKVDIKRTVAAPDIQMTQSPSSLSASVGDRVTITCRASQGIRNYLNWYQQKPGKAPKLLIYYASNLEVGVPSRFSGSGSGTDYTLTISSLQPEDFATYYCQQDNRFPYTFGGGTKVEIKR
notes: DVD-Ig; also called DVD2191H; DVD2191L
As to B1, the binding entry is recorded as “binds”.

B2: DVD2172 (bispecific antibody)
VH: EVQLVQSGAEVKKPGASVKVSCKASGYTFTTYGVSWVRQAPGQGLEWMGEIYPGNYNTYYNEKFRGRVTMTTDTSTSTAYMELRSLRSDDTAVYYCARWRTSYFSDYGYFDYWGQGTTVTVSSASTKGPEVQLVQSGAEVKKPGSSVKVSCKASGGSFGGYGIGWVRQAPGQGLEWMGGITPFFGFADYAQKFQGRVTITADESTTTAYMELSGLTSDDTAVYYCARDPNEFWNGYYSTHDFDSWGQGTTVTVSS
VL: DVVMTQSPLSLPVTLGQPASISCRSSQSLVHSHGNTYLHWYQQRPGQSPRLLIYTVSNRFSGVPDRFSGSGSGTDFTLKISRVEAEDVGVYYCSQSTHVPYTFGGGTKVEIKRTVAAPEIVLTQSPDFQSVTPKEKVTITCRASQDIGSELHWYQQKPDQPPKLLIKYASHSTSGVPSRFSGSGSGTDFTLTINGLEAEDAGTYYCHQTDSLPYTFGPGTKVDIKR
notes: DVD-Ig; also called DVD2172H; DVD2172L
For B2, the binding result is given as “binds”.

B3: DVD2174 (bispecific antibody)
VH: B2 VH
VL: DVVMTQSPLSLPVTLGQPASISCRSSQSLVHSHGNTYLHWYQQRPGQSPRLLIYTVSNRFSGVPDRFSGSGSGTDFTLKISRVEAEDVGVYYCSQSTHVPYTFGGGTKVEIKRTVAAPSVFIFPPEIVLTQSPDFQSVTPKEKVTITCRASQDIGSELHWYQQKPDQPPKLLIKYASHSTSGVPSRFSGSGSGTDFTLTINGLEAEDAGTYYCHQTDSLPYTFGPGTKVDIKR
notes: DVD-Ig; also called DVD2174H; DVD2174L
B3: the binding entry is on record as “binds”.

B4: DVD2190 (bispecific antibody)
VH: EVQLVQSGAEVKKPGASVKVSCKASGYTFTSYWMHWVRQAPGQGLEWIGNINPKGGSNIYNEKFQGRVTMTRDTSISTAYMELSRLRSDDTAVYYCARLDYFGDSFDLWGQGTTVTVSSASTKGPEVQLVQSGAEVKKPGSSVKVSCKASGGSFGGYGIGWVRQAPGQGLEWMGGITPFFGFADYAQKFQGRVTITADESTTTAYMELSGLTSDDTAVYYCARDPNEFWNGYYSTHDFDSWGQGTTVTVSS
VL: DIQMTQSPSSLSASVGDRVTITCRASQGIRNYLNWYQQKPGKAPKLLIYYASNLEVGVPSRFSGSGSGTDYTLTISSLQPEDFATYYCQQDNRFPYTFGGGTKVEIKRTVAAPEIVLTQSPDFQSVTPKEKVTITCRASQDIGSELHWYQQKPDQPPKLLIKYASHSTSGVPSRFSGSGSGTDFTLTINGLEAEDAGTYYCHQTDSLPYTFGPGTKVDIKR
notes: DVD-Ig; also called DVD2190H; DVD2190L
On to B4, for which the binding result was “binds”.

B5: DVD2192 (bispecific antibody)
VH: B4 VH
VL: DIQMTQSPSSLSASVGDRVTITCRASQGIRNYLNWYQQKPGKAPKLLIYYASNLEVGVPSRFSGSGSGTDYTLTISSLQPEDFATYYCQQDNRFPYTFGGGTKVEIKRTVAAPSVFIFPPEIVLTQSPDFQSVTPKEKVTITCRASQDIGSELHWYQQKPDQPPKLLIKYASHSTSGVPSRFSGSGSGTDFTLTINGLEAEDAGTYYCHQTDSLPYTFGPGTKVDIKR
notes: DVD-Ig; also called DVD2192H; DVD2192L
Consider B5, for which the binding result was “binds”.

B6: DVD2173 (bispecific antibody)
VH: EVQLVQSGAEVKKPGSSVKVSCKASGGSFGGYGIGWVRQAPGQGLEWMGGITPFFGFADYAQKFQGRVTITADESTTTAYMELSGLTSDDTAVYYCARDPNEFWNGYYSTHDFDSWGQGTTVTVSSASTKGPEVQLVQSGAEVKKPGASVKVSCKASGYTFTTYGVSWVRQAPGQGLEWMGEIYPGNYNTYYNEKFRGRVTMTTDTSTSTAYMELRSLRSDDTAVYYCARWRTSYFSDYGYFDYWGQGTTVTVSS
VL: EIVLTQSPDFQSVTPKEKVTITCRASQDIGSELHWYQQKPDQPPKLLIKYASHSTSGVPSRFSGSGSGTDFTLTINGLEAEDAGTYYCHQTDSLPYTFGPGTKVDIKRTVAAPDVVMTQSPLSLPVTLGQPASISCRSSQSLVHSHGNTYLHWYQQRPGQSPRLLIYTVSNRFSGVPDRFSGSGSGTDFTLKISRVEAEDVGVYYCSQSTHVPYTFGGGTKVEIKR
notes: DVD-Ig; also called DVD2173H; DVD2173L
Turning to B6, the binding entry is listed as “binds”.

B7: DVD2177 (bispecific antibody)
VH: EVQLVQSGAEVKKPGSSVKVSCKASGGSFGGYGIGWVRQAPGQGLEWMGGITPFFGFADYAQKFQGRVTITADESTTTAYMELSGLTSDDTAVYYCARDPNEFWNGYYSTHDFDSWGQGTTVTVSSASTKGPSVFPLAPEVQLVQSGAEVKKPGASVKVSCKASGYTFTTYGVSWVRQAPGQGLEWMGEIYPGNYNTYYNEKFRGRVTMTTDTSTSTAYMELRSLRSDDTAVYYCARWRTSYFSDYGYFDYWGQGTTVTVSS
VL: B6 VL
notes: DVD-Ig; also called DVD2177H; DVD2177L
Regarding B7, the binding result is recorded as “binds”.

B8: DVD2175 (bispecific antibody)
VH: B6 VH
VL: EIVLTQSPDFQSVTPKEKVTITCRASQDIGSELHWYQQKPDQPPKLLIKYASHSTSGVPSRFSGSGSGTDFTLTINGLEAEDAGTYYCHQTDSLPYTFGPGTKVDIKRTVAAPSVFIFPPDVVMTQSPLSLPVTLGQPASISCRSSQSLVHSHGNTYLHWYQQRPGQSPRLLIYTVSNRFSGVPDRFSGSGSGTDFTLKISRVEAEDVGVYYCSQSTHVPYTFGGGTKVEIKR
notes: DVD-Ig; also called DVD2175H; DVD2175L
On to B8, for which the binding result is given as “binds”.
